Data taken from PubChem BioAssay AID1487 (National Center for Advancing Translational Sciences (NCATS), 2009).
Some of the results follow. Shown are side measurements of this screen, not its main read-out; they come without a call. Compounds called inactive in the main read-out are mostly missing here. The note in brackets gives the kind of curve behind each potency; many fits are weak.

Assay: qHTS Assay for Modulators of Lamin A Splicing
Conditions: HeLa LMNA splicing GFP/RFP minigene ratio, 48 h
How it was run: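 S3 HeLa cells stably expressing lamin A-EGFP splicing minigene plus DsRed2, 600 cells/well, 48 h compound exposure at 37C. Laser-scanning cytometry; analysed as GFP (500-530 nm)/RFP (575-640 nm) total intensity ratio; 0.5% DMSO vehicle.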

[1] = measured here: RFP viability control channel
[2] = measured here: GFP splicing reporter channel

Clc1ccccc1Cn1nnc2c(NCC3CC3)ncnc21
AC50 [1]: 11.2 µM [rising, single point]

COc1cccc2sc(N(Cc3cccnc3)C(=O)c3ccc4c(c3)OCCO4)nc12
AC50 [2]: 4.47 µM [rising, partial curve]

COc1ccc2c(C)nc(Nc3nc(C)c(C)c(=O)[nH]3)nc2c1
AC50 [1]: 7.08 µM [falling, full curve, poor fit]

CSc1ncccc1C(=O)OCC(=O)c1cccs1
AC50 [1]: 22.4 µM [rising, partial curve]

COc1ccc(CC(=O)c2ccc(OC)c(OC)c2)cc1
AC50 [2]: 35.5 µM [rising, single point]

CCN1CCN(Cc2c(O)ccc3c(C)c(-c4ccc(OC)cc4)c(=O)oc23)CC1
AC50 [1]: 35.5 µM [rising, single point]

Cc1cc(SCC(=O)NCc2ccc(Cl)cc2)nc(=O)[nH]1
AC50 [1]: 2.51 µM [rising, partial curve, poor fit]

Cc1ccc(-n2nc(-c3ccccc3)cc2Nc2ccccc2N)cc1
AC50 [1]: 35.5 µM [rising, single point]

Cn1c2ccccc2c2c(C(=O)N3CCN(C(=O)c4ccco4)CC3)cn(C3CCCCC3)c(=O)c21
AC50 [2]: 25.1 µM [rising, single point] | AC50 [1]: 22.4 µM [rising, single point]

Cc1ccc(S(=O)(=O)N2CCCCC2)cc1NC(=O)CSc1ccc2c(c1)OCCO2
AC50 [2]: 11.2 µM [rising, single point] | AC50 [1]: 12.6 µM [rising, partial curve]

Cc1ccc(C)c(NC(=O)CN2CCSc3ccc(S(=O)(=O)N4CCCC4)cc32)c1
AC50 [1]: 0.0178 µM [falling, full curve, poor fit]

COC(=O)c1c(-c2ccc(Cl)cc2)noc1N1CCN(c2cc(C)ccc2C)CC1
AC50 [2]: 4.47 µM [falling, full curve] | AC50 [1]: 10 µM [falling, partial curve, poor fit]

O=C(O)CSc1nnc(COc2cccc3ccccc23)n1Cc1ccccc1
AC50 [2]: 0.0794 µM [falling, full curve, poor fit]

O=C1CS(=O)(=O)C2(C(=O)N(Cc3ccccc3Cl)c3ccccc32)N1c1ccc(F)cc1 (stereo unspecified)
AC50 [1]: 7.08 µM [falling, partial curve, poor fit]

CCCC(=O)N(c1ccc2oc(C)c(C(C)=O)c2c1)S(=O)(=O)c1ccc(CC)cc1
AC50 [1]: 31.6 µM [rising, single point]

O=C(NCCN1CCOCC1)c1ccc(N2CCCC2)c([N+](=O)[O-])c1
AC50 [1]: 6.31 µM [falling, partial curve, poor fit]

O=S(=O)(Nc1ccc2c(c1)nc1n2CCN(Cc2ccccc2)C1)c1ccc(F)cc1
AC50 [1]: 7.94 µM [rising, partial curve, poor fit]

CCN1C(=O)C(CC(=O)Nc2ccc(OC)cc2)N(CCc2ccc(F)cc2)C1=S (stereo unspecified)
AC50 [2]: 14.1 µM [falling, partial curve] | AC50 [1]: 11.2 µM [falling, partial curve, poor fit]

CCC(C)(C)NC(=O)C1CCN(S(=O)(=O)c2ccc3c(c2)CCCN3C(C)=O)CC1
AC50 [2]: 0.0891 µM [falling, full curve]

Clc1cnccn1
AC50 [2]: 1.26 µM [falling, partial curve, poor fit]

CCCn1c(SCC(=O)Nc2ccccc2-c2ccccc2)nnc1-c1ccoc1C
AC50 [1]: 22.4 µM [rising, single point]

COCCCNC(=O)c1cc2cc(S(=O)(=O)N3CCCCC3)ccc2n1C
AC50 [2]: 0.141 µM [rising, full curve, poor fit]

COC(=O)c1c(NC(=O)c2ccc(S(=O)(=O)N3CCC(C)CC3)cc2)sc2c1CCN(C)C2
AC50 [2]: 0.00316 µM [rising, full curve, poor fit]

Cc1cc(N2CC(C)OC(C)C2)nc2ccccc12 (stereo unspecified)
AC50 [2]: 0.0251 µM [falling, full curve, poor fit]

CCCCNC(=O)CSc1nc2ccsc2c(=O)n1CCCC(=O)NCCc1ccc(S(N)(=O)=O)cc1
AC50 [2]: 0.0355 µM [rising, partial curve]

Cc1cc(C)c(OCC(=O)Nc2ccccc2N2CCOCC2)c(C)c1
AC50 [2]: 28.2 µM [rising, single point] | AC50 [1]: 22.4 µM [rising, single point]

CCOC(=O)c1cc(-c2ccc(OC)cc2)nc2c1c(C)nn2CCC(N)=S
AC50 [1]: 0.891 µM [rising, partial curve, poor fit]

CCOC(=O)Cc1cc(-c2ccc(O)cc2)nc2ccc3ccccc3c12
AC50 [1]: 6.31 µM [falling, single point]

Cc1cc(C)c(NC(=O)C2CCN(c3nc4ccccc4n4cccc34)CC2)c(C)c1
AC50 [2]: 20 µM [falling, partial curve] | AC50 [1]: 12.6 µM [falling, partial curve]

COc1ccc(-n2ncc(C(=O)NCc3ccco3)c2C2CCN(C(=O)OC(C)(C)C)CC2)cc1
AC50 [2]: 0.00316 µM [rising, full curve, poor fit]

CC(C)NC(=O)C1CCC(Cn2c(=O)c3sccc3n(Cc3ccc(F)cc3)c2=O)CC1 (stereo unspecified)
AC50 [1]: 0.158 µM [falling, full curve, poor fit]

NC(=O)C1(N2CCCCC2)CCN(c2nc(-c3ccccc3)cs2)CC1
AC50 [1]: 35.5 µM [rising, single point]

COc1ccc2[nH]c(C)c(CCN(Cc3cccs3)C(=S)Nc3ccccc3)c2c1
AC50 [1]: 11.2 µM [rising, partial curve]

c1ccc(OCCOCCN2CCN(C(c3ccccc3)c3ccccc3)CC2)cc1
AC50 [1]: 15.8 µM [rising, single point]

O=C(NCC(c1cccnc1)N1CCc2ccccc21)c1cccc(Br)c1 (stereo unspecified)
AC50 [1]: 10 µM [rising, single point]

O=C(Nc1cccnc1)c1ccc(COc2ccccc2Br)o1
AC50 [1]: 35.5 µM [rising, single point]

O=C(CC1N=C2c3ccccc3N=C(SCc3ccc(F)cc3)N2C1=O)NCc1ccc2c(c1)OCO2 (stereo unspecified)
AC50 [2]: 0.708 µM [rising, full curve, poor fit]

CCCCNC1C(CC)C(CCC)C(C#N)(C#N)C1(C#N)C#N (stereo unspecified)
AC50 [1]: 12.6 µM [rising, partial curve]

O=C(CSc1nc(-c2ccccc2)nc2ccccc12)Nc1cccc(C(=O)O)c1
AC50 [1]: 14.1 µM [rising, partial curve]

CC(NS(=O)(=O)c1ccc(Br)cc1)C(c1cccs1)N1CCOCC1 (stereo unspecified)
AC50 [1]: 1.58 µM [rising, partial curve, poor fit]

COc1cccc(Cn2c(=O)c(-c3ccc(Cl)cc3)nc3cnc(OC)nc32)c1
AC50 [2]: 3.55 µM [falling, full curve] | AC50 [1]: 3.98 µM [falling, full curve]

COCCn1c(SCc2nc3ccccc3c(=O)[nH]2)nc2ccccc2c1=O
AC50 [1]: 0.0224 µM [falling, full curve, poor fit]

CC(C)(C)c1ccc(C(=O)N/N=C/c2cccc(Cl)c2)cc1
AC50 [1]: 31.6 µM [rising, single point]

CN(C)c1ccc(C2CC(c3cccc(NS(C)(=O)=O)c3)=NN2C(=O)c2ccccc2)cc1 (stereo unspecified)
AC50 [2]: 0.708 µM [falling, full curve] | AC50 [1]: 0.0708 µM [falling, full curve, poor fit]

COc1ccc(OCCCc2c(C)n[nH]c2C)cc1
AC50 [2]: 12.6 µM [rising, single point] | AC50 [1]: 22.4 µM [rising, partial curve]

O=C(CNC(=O)c1ccco1)OCC(=O)c1ccccc1
AC50 [1]: 7.08 µM [falling, partial curve, poor fit]

CN(CC(=O)Nc1ccc(F)cc1)c1ccc(S(=O)(=O)N2CCCCC2)cc1[N+](=O)[O-]
AC50 [2]: 10 µM [rising, partial curve, poor fit] | AC50 [1]: 17.8 µM [rising, partial curve]

O=C(O)c1ccccc1-c1ccccc1C(=O)Nc1cccc(O)c1
AC50 [2]: 0.355 µM [rising, single point]

N#C/C(=C\c1ccc(N2CCOCC2)cc1)c1ccccc1
AC50 [2]: 14.1 µM [rising, partial curve] | AC50 [1]: 35.5 µM [rising, partial curve]

Cc1ccc(N2C(N)=C(C#N)C(c3cccs3)C3=C2CC(C)(C)CC3=O)cc1 (stereo unspecified)
AC50 [1]: 22.4 µM [rising, single point]

O=C(c1ccccc1F)N1CCN(C2CCC(c3ccccc3)CC2)CC1 (stereo unspecified)
AC50 [2]: 3.55 µM [falling, partial curve, poor fit] | AC50 [1]: 28.2 µM [falling, partial curve]

COc1ccccc1/C=C/C(=O)Oc1cccc2cccnc12
AC50 [2]: 2.24 µM [falling, partial curve]

CCOC(=O)NC(=O)COC(=O)c1ccc(Sc2ncn[nH]2)c([N+](=O)[O-])c1
AC50 [1]: 2.24 µM [rising, partial curve, poor fit]

O=C(N/N=C/c1cc([N+](=O)[O-])ccc1O)NC12CC3CC(CC(C3)C1)C2
AC50 [2]: 35.5 µM [rising, single point] | AC50 [1]: 35.5 µM [rising, single point]

CCNc1ccc(Br)cc(C(=O)/C=C/c2c(Cl)cccc2Cl)c1=O
AC50 [2]: 35.5 µM [falling, single point] | AC50 [1]: 28.2 µM [falling, single point]

Cc1ccc(CSC2=NCCN2C(=O)c2ccc(S(=O)(=O)N(C)C)cc2)cc1
AC50 [2]: 0.794 µM [rising, single point] | AC50 [1]: 1.26 µM [rising, single point]
